Experimental data from patent JP2014141434A.
Results are given in words; binding and its absence hold for the method and conditions named. Some entries that bind do so weakly or less than the wild type.

By UniProt entry, the sequences of proteins in these tests, tags left out. Where a name states a change or a piece, a line headed by the entry shows the natural chain unless it says otherwise.
UniProt Q8WZ75: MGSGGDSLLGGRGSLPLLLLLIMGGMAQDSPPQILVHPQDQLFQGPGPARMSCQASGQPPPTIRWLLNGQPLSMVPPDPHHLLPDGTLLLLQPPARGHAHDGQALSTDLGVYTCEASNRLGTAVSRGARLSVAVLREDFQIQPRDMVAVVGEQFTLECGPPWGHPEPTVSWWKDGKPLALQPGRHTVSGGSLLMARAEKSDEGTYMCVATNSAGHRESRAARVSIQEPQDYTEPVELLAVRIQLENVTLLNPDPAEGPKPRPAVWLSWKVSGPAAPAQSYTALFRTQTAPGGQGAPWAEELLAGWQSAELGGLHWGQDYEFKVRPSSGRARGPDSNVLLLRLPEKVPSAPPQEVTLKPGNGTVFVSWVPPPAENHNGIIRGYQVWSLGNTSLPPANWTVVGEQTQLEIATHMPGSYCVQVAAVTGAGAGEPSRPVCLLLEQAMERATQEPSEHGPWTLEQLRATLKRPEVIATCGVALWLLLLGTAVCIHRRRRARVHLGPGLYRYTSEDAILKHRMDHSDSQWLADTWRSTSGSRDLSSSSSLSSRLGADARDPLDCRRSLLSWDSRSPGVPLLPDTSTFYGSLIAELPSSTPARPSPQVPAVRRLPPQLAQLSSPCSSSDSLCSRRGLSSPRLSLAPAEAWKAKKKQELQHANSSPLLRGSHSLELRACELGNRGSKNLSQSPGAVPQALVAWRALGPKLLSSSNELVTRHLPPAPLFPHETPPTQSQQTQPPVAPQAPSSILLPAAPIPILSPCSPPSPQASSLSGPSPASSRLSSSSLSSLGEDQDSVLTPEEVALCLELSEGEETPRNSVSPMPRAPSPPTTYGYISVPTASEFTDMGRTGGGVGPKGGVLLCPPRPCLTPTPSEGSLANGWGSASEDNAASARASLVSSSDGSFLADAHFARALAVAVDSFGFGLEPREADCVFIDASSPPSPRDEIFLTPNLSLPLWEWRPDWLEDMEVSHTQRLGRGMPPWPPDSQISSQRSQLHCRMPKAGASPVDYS

Molecular target: T1, N末端FLAG−tag付加型ヒトROBO4細胞外領域ドメイン欠損体 hROBO4−46 (human) (UniProt Q8WZ75)
T1 sequence: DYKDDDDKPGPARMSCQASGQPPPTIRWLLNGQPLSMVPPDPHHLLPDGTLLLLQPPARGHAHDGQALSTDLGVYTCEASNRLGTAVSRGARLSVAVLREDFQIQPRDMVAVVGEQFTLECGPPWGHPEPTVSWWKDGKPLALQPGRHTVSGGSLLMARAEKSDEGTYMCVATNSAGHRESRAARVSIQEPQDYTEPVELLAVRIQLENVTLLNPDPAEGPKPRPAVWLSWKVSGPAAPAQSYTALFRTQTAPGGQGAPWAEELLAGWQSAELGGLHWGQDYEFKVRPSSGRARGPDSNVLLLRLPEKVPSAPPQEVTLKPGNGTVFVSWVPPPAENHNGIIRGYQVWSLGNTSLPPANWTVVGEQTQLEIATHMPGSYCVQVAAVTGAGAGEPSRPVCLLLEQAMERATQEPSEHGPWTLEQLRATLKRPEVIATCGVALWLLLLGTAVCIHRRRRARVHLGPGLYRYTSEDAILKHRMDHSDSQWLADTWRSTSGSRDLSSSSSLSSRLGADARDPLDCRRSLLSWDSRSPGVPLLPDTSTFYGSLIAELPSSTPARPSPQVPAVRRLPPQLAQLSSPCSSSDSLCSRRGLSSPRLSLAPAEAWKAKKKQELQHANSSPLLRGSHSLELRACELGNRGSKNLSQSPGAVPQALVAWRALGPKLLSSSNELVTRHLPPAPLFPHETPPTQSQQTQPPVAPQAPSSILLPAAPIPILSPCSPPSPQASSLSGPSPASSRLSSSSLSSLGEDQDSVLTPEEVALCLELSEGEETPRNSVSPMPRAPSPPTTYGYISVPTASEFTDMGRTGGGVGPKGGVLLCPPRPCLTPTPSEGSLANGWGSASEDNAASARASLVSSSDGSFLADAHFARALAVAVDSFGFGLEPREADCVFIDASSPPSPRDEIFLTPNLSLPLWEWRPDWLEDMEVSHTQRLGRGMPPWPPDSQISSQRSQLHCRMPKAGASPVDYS
Assay: flow cytometry, transfected HEK293 cells, 10 μg/mL

binding: binds
B1: 抗ROBO4マウスモノクローナル抗体 MAb1 (antibody, V domains shown)
VH: EVQLVESGGGLVKPGGSLKLSCAASGFTFSTYAMSWVRQTPEKRLEWVATISNGGTYTYYPDSVKGRFTISRDNAENTLYLQMSSLRSEDTAMYFCARLIYYDYLDYWGHGTTLTVSS
VL: DAVMTQTPLSLPVSLGDQASISCRSSQSLENSNGNTYLNWYFQKPGQSPQLLIYRVSNRFSGVLDRFSGSGSGTDFTLKISRVEAEDFGVYFCLQVTHVPWTFGGGTKLEIKR
